Record: PubChem BioAssay AID1259425 (University of Nebraska Medical Center, 2018)
Purpose: 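Compare each knockdown with KSR1 silencing using changes in marker transcripts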 (primary screen). System: HCT116 human colon cancer cells. Reagent: siRNA pool against human genes, 50 nM siRNA. Read-out: 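mRNA of six signature genes measured together by branched-DNA assay after 50 nM siRNA pool, blank removed, divided by geometric mean of two housekeeping genes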. Direction: BNIP3L mRNA: higher = more BNIP3L transcript after knockdown; NDRG1 mRNA: higher = more NDRG1 transcript after knockdown.
Here is an unselected part of about 14,000 reagents. Further read-outs or replicates are left out here. Not stated in the record: the time to read-out.

After knock-down of PANX2, the record shows BNIP3L mRNA, set 1 = 0.119; NDRG1 mRNA, set 1 = 0.382.
CES2 scored BNIP3L mRNA, set 1 = 0.0764; NDRG1 mRNA, set 1 = 0.127.
FCRL5 scored BNIP3L mRNA, set 1 = 0.0973; NDRG1 mRNA, set 1 = 0.0692.
After knock-down of RFC4, the record shows BNIP3L mRNA, set 1 = 0.139; NDRG1 mRNA, set 1 = 0.0472.
For TIMM17B the deposit lists BNIP3L mRNA, set 1 = 0.0436; NDRG1 mRNA, set 1 = 0.0655.
Depletion of RGN came out at: BNIP3L mRNA, set 1 = 0.148; NDRG1 mRNA, set 1 = 0.296.
Knock-down of POMGNT2 came out at: BNIP3L mRNA, set 1 = 0.114; NDRG1 mRNA, set 1 = 0.168.
For NEUROD2, the entry reads BNIP3L mRNA, set 1 = 0.171; NDRG1 mRNA, set 1 = 0.383.
AKAP17A showed BNIP3L mRNA, set 1 = 0.148; NDRG1 mRNA, set 1 = 0.851.

Only “NDRG1 mRNA, set 1” (2 entries from above):
POMGNT2 = 0.168
NEUROD2 = 0.383

Continued.
Knock-down of NCOA3 resulted in: BNIP3L mRNA, set 1 = 0.118; NDRG1 mRNA, set 1 = 0.116.
After knock-down of TSPY2, the screen gave BNIP3L mRNA, set 1 = 0.0784; NDRG1 mRNA, set 1 = 0.317.
With knock-down of KPNA6, the screen gave BNIP3L mRNA, set 1 = 0.0406; NDRG1 mRNA, set 1 = 0.0652.
Silencing of RASSF5 gave: BNIP3L mRNA, set 1 = 0.131; NDRG1 mRNA, set 1 = 0.118.
FKBP5 showed BNIP3L mRNA, set 1 = 0.0899; NDRG1 mRNA, set 1 = 0.0876.
For CYP27A1 the deposit lists BNIP3L mRNA, set 1 = 0.0831; NDRG1 mRNA, set 1 = 0.149.
Silencing of TRIP11 came out at: BNIP3L mRNA, set 1 = 0.112; NDRG1 mRNA, set 1 = 0.0678.
Silencing of PRPF8 resulted in: BNIP3L mRNA, set 1 = 0.0671; NDRG1 mRNA, set 1 = 0.163.
GPR161 gave BNIP3L mRNA, set 1 = 0.192; NDRG1 mRNA, set 1 = 0.142.
For EFNA4, the values are BNIP3L mRNA, set 1 = 0.132; NDRG1 mRNA, set 1 = 0.164.
